Measured values reported in PubChem BioAssay AID1347076 (National Center for Advancing Translational Sciences (NCATS), 2019).
The campaign covered roughly 400,000 compounds. About 13,000 (3.2%) were called active. Inconclusive means that the source gave no clear call. Such entries were picked first, then a sample of the others. Calls come from the whole dose curve; as a rule, active = well fitted cell-killing curve with a large enough effect; inconclusive = small, poorly fitted or top-dose-only effect, or effect the other way; inactive = flat fitted curve, though single readings scatter. Where the call is inconclusive, the potency comes from a doubtful curve fit.

Assay: qHTS assay for MDR1-selective chemotherapeutics: Primary screen using the drug-selected MDR subline cells KB-V1; note: nearly all actives have a fitted effect of over 60% in size
Conditions: KB-V1 MDR cells viability, CellTiter-Glo, 72 h; activity change, negative = cytotoxicity: at 46.1 µM (top of the series)
Outline: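 Cytotoxicity via CellTiter-Glo luminescence after 72 h compound exposure at 37 degrees C. Cells: drug-selected KB-V1 line, DMEM phenol-red free plus 10% FBS. Compounds tested at multiple concentrations; normalized data fitted to concentration-effect curves.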
% is set by controls: 0 for no effect and ±100 for the full control effect; potency is the fitted concentration of half-maximal effect.

Compound	Potency	activity change, negative = cytotoxicity
Cc1ccc(C(=O)OCC(=O)NCc2ccccc2)cc1S(=O)(=O)N1CCCCC1	inconclusive: 29.1 µM [cytotoxic, single point]	
Cc1cccc2cc(CN(Cc3nnnn3Cc3ccco3)C3CCCC3)c3nnnn3c12	active: 11.6 µM	
CC(OC(=O)C1CC1)C(=O)Nc1ncc(Cl)cc1Cl (centres undefined)	inconclusive: 23.1 µM [rising, single point]	
CCCN(CC(=O)Nc1ccccc1C)C(=O)c1ccc(S(=O)(=O)N2CCC(C)CC2)cc1	inconclusive: 5.8 µM [cytotoxic, partial curve]	
COc1ccc(-c2c(C)nn3c(C)cc(C)nc23)cc1	inactive	
O=C(c1cc(COc2c(F)cccc2F)on1)N1CCCCCC1	inactive	
O=C(c1ccc(Cl)c(S(=O)(=O)NCc2ccccc2)c1)N1CCN(c2ccccn2)CC1	active: 4.11 µM	
CCOC(=O)C1(CCSC)NC(c2ccco2)C2C(=O)N(CC)C(=O)C21 (centres undefined)	inactive	
CCOC(=O)c1c(C)[nH]c(C(=O)OCC(=O)Nc2cc(Cl)ccc2OC)c1C	active: 9.2 µM	
CCC1CCCCN1CCCNC(=O)c1ccc(CS(=O)(=O)c2ccccc2OC)o1 (centres undefined)	inactive	
COc1ccc(CCNC(=O)c2ccc3c(c2)N(Cc2cccc(C)c2)C(=O)c2ccccc2S3(=O)=O)cc1OC	inconclusive: 2.59 µM [rising, partial curve]	
CCOc1ccc(CCN2C(=S)N([C@@H](CC(C)C)CN3CCCC3CN3C(=S)NC[C@@H]3CC(C)C)C[C@@H]2Cc2ccccc2)cc1 (some centres undefined)	inactive	
Cc1ccc(NC(=O)C2CCCN(C(=O)c3ccc(Cl)cc3)C2)c(C)c1 (centres undefined)	inactive	
CN1CCN(c2ccc(-c3cc(NC=O)c4ncc(-c5ccc(F)c(Cl)c5)n4c3)cc2)CC1	inconclusive: 29.1 µM [cytotoxic, single point]	
CS(=O)(=O)N(CC(=O)NCCSCc1ccco1)c1ccc(Cl)cc1	inconclusive: 14.6 µM [cytotoxic, partial curve]	
CCCn1c(CN2CCN(C(C)=O)CC2)nc2cc(S(=O)(=O)N(C)C)ccc21	inactive	
CCOc1ccc(NC(=O)C2CCCN(c3nn4c(=O)cc(C)nc4s3)C2)cc1 (centres undefined)	inactive	
CCNC(=O)Cn1cc(C#N)c2ccccc21	inconclusive: 8.2 µM [rising, partial curve]	
COc1ccccc1Nc1nc(-c2cccnc2)cs1	inconclusive: 9.2 µM [cytotoxic, partial curve]	
CSc1nc(N2CCN(C)CC2)c2c(c1C#N)CC(C)(C)OC2	inconclusive: 8.2 µM [cytotoxic, partial curve, poor fit]	
O=C(NCCc1ccccc1)C1CCC(CNc2c(N3CCCCC3)c(=O)c2=O)CC1 (centres undefined)	inconclusive: 20.6 µM [rising, single point]	
CCN(Cc1ccccc1)C(c1ccc(C)cc1)c1nnnn1C(C)(C)C (centres undefined)	inconclusive: 29.1 µM [cytotoxic, single point]	
CN(C)S(=O)(=O)c1ccc(S(=O)(=O)N2CCCC(C(=O)NC3CCCC3)C2)cc1 (centres undefined)	inactive	

Compound	Potency	activity change, negative = cytotoxicity
O=C(Nc1ccccc1)Nc1ccccc1Br	inconclusive: 13 µM [cytotoxic, partial curve, poor fit]	
CCc1c(C#N)c(SCCC(=O)Nc2ccc(OC)cc2)nc2c1C(=O)CC(C)(C)C2	inconclusive: 20.6 µM [cytotoxic, single point]	
CCn1ccnc1CNC(=O)C1CCC(=O)N(Cc2cccc(C(F)(F)F)c2)C1 (centres undefined)	inconclusive: 25.9 µM [rising, single point]	
Cc1c(Cl)cccc1NC(=O)COC(=O)Cn1cnc2c1c(=O)n(C)c(=O)n2C	inconclusive: 29.1 µM [rising, single point]	
CCOc1ccc(CN2CCN(C(=O)c3cccc(F)c3)CC2)cc1	inconclusive: 25.9 µM [cytotoxic, partial curve, poor fit]	
Cc1ccc2cc(CN(c3ccccc3C)S(=O)(=O)c3ccccc3)c(=O)[nH]c2c1	inconclusive: 20.6 µM [cytotoxic, partial curve]	
COC(=O)[C@]12CCCCC=C1N(CCc1ccc(OC)c(OC)c1)C(=O)[C@H](CC(=O)N1CCSCC1)C2	inconclusive: 5.17 µM [cytotoxic, partial curve]	
O=C(NNC(=O)c1ccccc1Cl)c1ccc(-n2cncn2)c([N+](=O)[O-])c1	inactive	
COc1ccc(CCC(=O)N2CCN(c3ccc([N+](=O)[O-])cc3)CC2)cc1OC	inconclusive: 20.6 µM [cytotoxic, single point]	
CCOC(=O)c1ccccc1NC(=O)COC(=O)c1ccccc1C(=O)N(C)c1ccccc1	inconclusive: 16.4 µM [cytotoxic, single point]	
COc1ccccc1-c1csc(NC(=O)c2cc(-c3cccs3)nc3ccccc23)n1	inactive	
Cc1cc(C(=O)N/N=C/c2ccc(O)c([N+](=O)[O-])c2)c(C)n1-c1ccc(F)cc1	inconclusive: 2.06 µM [cytotoxic, full curve]	
Cn1cc([N+](=O)[O-])c(C(=O)Nc2nc(-c3ccc(Cl)cc3)cs2)n1	active: 13 µM	
CCC(C)(C)n1nnnc1C(C(C)C)N(Cc1cccnc1)Cc1ccco1 (centres undefined)	inactive	
CCCOc1ccc(N2C(=O)CC(N(Cc3ccc(OC)cc3)C(=S)Nc3ccccc3)C2=O)cc1 (centres undefined)	inconclusive: 20.6 µM [cytotoxic, partial curve, poor fit]	
Cc1nnc(NC(=O)c2oc3ccccc3c2C)s1	inactive	
Cc1ccc(NC(=O)c2ccc(N/N=C/c3cccc(O)c3)c([N+](=O)[O-])c2)cc1	inconclusive: 18.4 µM [cytotoxic, single point]	
c1ccc(-c2cn3c(n2)CCc2ccc4cccnc4c2-3)cc1	inconclusive: 29.1 µM [cytotoxic, single point]	
O=C(/C=C\Nc1ccc2c(c1)OCO2)c1ccc(Cl)s1	inactive	
O=C(NCc1ccc2c(c1)OCO2)c1ccc(N2CCCCCC2)c([N+](=O)[O-])c1	inconclusive: 20.6 µM [cytotoxic, partial curve]	
COc1cccc(NC(=O)Cn2cc(C=O)c3ccccc32)c1	inconclusive: 18.4 µM [cytotoxic, single point]	
CCc1cc2cc(C)cc(C)c2[nH]c1=S	inactive	
CCNc1nc(NCC)nc(N2CC(=O)N(CC(=O)OCC)C2=N)n1	inconclusive: 13 µM [cytotoxic, partial curve, poor fit]	

Compound	Potency	activity change, negative = cytotoxicity
COC(=O)CCC(=O)Nc1c(C)n(C)n(-c2ccccc2)c1=O	inconclusive: 18.4 µM [rising, single point]	
C=CCN=c1scc(-c2ccco2)n1/N=C/c1ccc(O)c(O)c1O	inconclusive: 16.4 µM [cytotoxic, single point]	
CN(CC(=O)NC(=O)NC1CCCCC1)CC(=O)Nc1ccccc1C(F)(F)F	inconclusive: 29.1 µM [cytotoxic, single point]	
CCN(CC(=O)Nc1ccc(NC(C)=O)cc1)C(=O)C1CC1	inactive	
CCOC(=O)c1c(NC(=O)CSc2c[nH]c3ccccc23)sc2c1CCCC2	inconclusive: 20.6 µM [cytotoxic, single point]	
CCCCNc1nc(=S)[nH]c2cc(OC)c(OC)cc12	inconclusive: 23.1 µM [cytotoxic, single point]	
Cc1ccc(C(=O)C2CCN(C(=S)NCC3CCCO3)CC2)cc1 (centres undefined)	inconclusive: 29.1 µM [rising, single point]	
O=[N+]([O-])c1ccc(O)c(/C=N/Nc2ncnc3c2cnn3-c2ccccc2)c1	inactive	
COc1cc(C)ccc1OCCOc1c(Cl)cc(Cl)cc1Cl		inconclusive: -41.1%
Cc1cccc(-c2oc3ccc(-c4ccc5c(c4)OCO5)cc3c2/C=C/c2ccc(N)cc2)c1	inconclusive: 0.0046 µM [rising, full curve, poor fit]	
CCOC(=O)c1cnn2c(C(F)(F)F)cc(-c3ccco3)nc12	inactive	
Cc1ccc([C@H]2N[C@]3(CCCN(CC4CCCCC4)C3=O)[C@H]3C(=O)N(Cc4ccccc4)C(=O)[C@@H]23)cc1	inconclusive: 0.0073 µM [rising, full curve, poor fit]	
CCN(CC)C(=O)C1=C(C)N(Cc2ccc(C(C)(C)C)cc2)C(=O)C(CC(=O)NC(c2ccccc2)c2ccccc2)C1 (centres undefined)	inconclusive: 29.1 µM [cytotoxic, partial curve, poor fit]	
CC1CCCC(=C\c2ccccc2)/C1=N/O (centres undefined)	inactive	
Cc1nc(C(=O)NC2CC2)sc1C1(C)CC(c2cccc([N+](=O)[O-])c2)=NO1 (centres undefined)	inactive	
O=C(NCc1ccc(F)cc1)C1CCN(C(=O)c2ccc(-n3ccc4ccccc43)s2)CC1	inactive	
O=C(Nc1cccc(C(=O)Nc2ccc(Br)cc2)c1)c1ccccc1	inactive	
O=C(CCNS(=O)(=O)c1cccc2nonc12)N1CCN(c2cccc(Cl)c2)CC1	active: 10.3 µM	
CC(=O)Nc1nc(C)c(Oc2ccc(Cl)cc2)c(=O)[nH]1	inconclusive: 0.58 µM [rising, partial curve, poor fit]	
Cc1cccc(OCC(=O)Nc2nc(-c3ccncc3)cs2)c1	inactive	
CCNC(=O)N1CCN(C(=O)NCC)CC1	inconclusive: 16.4 µM [rising, partial curve, poor fit]	
O=C(COC(=O)c1ccc(S(=O)(=O)N2CCCC2)cc1)Nc1cccnc1Cl	inactive	
COC(=O)[C@@]1(Cc2ccc(F)cc2)[C@H]2c3cc(C(=O)N(C)C)n(CCc4c[nH]c5ccc(OC)cc45)c3C[C@H]2CN1C(=O)c1ccccc1	active: 18.4 µM	

Three structures out of the list, ordered by heavy-atom count, low to high:
Compound	Potency	activity change, negative = cytotoxicity
CC1CCCC(=C\c2ccccc2)/C1=N/O (centres undefined)	inactive	
COc1cc(C)ccc1OCCOc1c(Cl)cc(Cl)cc1Cl		inconclusive: -41.1%
Cc1nc(C(=O)NC2CC2)sc1C1(C)CC(c2cccc([N+](=O)[O-])c2)=NO1 (centres undefined)	inactive	

Reprinted at random: 2 records from the list, in no set order.
Compound	Potency	activity change, negative = cytotoxicity
CSc1nc(N2CCN(C)CC2)c2c(c1C#N)CC(C)(C)OC2	inconclusive: 8.2 µM [cytotoxic, partial curve, poor fit]	
COc1cccc(NC(=O)Cn2cc(C=O)c3ccccc32)c1	inconclusive: 18.4 µM [cytotoxic, single point]	
